Laboratory results as given in article doi:10.1101/2024.03.07.583365.
Results are given in words; binding and its absence hold for the method and conditions named. In cells and extracts the contact can be indirect. Some entries that bind do so weakly or less than the wild type.

Chains of the proteins cited; added tags and fusions are not shown.
UniProt Q9UKV8: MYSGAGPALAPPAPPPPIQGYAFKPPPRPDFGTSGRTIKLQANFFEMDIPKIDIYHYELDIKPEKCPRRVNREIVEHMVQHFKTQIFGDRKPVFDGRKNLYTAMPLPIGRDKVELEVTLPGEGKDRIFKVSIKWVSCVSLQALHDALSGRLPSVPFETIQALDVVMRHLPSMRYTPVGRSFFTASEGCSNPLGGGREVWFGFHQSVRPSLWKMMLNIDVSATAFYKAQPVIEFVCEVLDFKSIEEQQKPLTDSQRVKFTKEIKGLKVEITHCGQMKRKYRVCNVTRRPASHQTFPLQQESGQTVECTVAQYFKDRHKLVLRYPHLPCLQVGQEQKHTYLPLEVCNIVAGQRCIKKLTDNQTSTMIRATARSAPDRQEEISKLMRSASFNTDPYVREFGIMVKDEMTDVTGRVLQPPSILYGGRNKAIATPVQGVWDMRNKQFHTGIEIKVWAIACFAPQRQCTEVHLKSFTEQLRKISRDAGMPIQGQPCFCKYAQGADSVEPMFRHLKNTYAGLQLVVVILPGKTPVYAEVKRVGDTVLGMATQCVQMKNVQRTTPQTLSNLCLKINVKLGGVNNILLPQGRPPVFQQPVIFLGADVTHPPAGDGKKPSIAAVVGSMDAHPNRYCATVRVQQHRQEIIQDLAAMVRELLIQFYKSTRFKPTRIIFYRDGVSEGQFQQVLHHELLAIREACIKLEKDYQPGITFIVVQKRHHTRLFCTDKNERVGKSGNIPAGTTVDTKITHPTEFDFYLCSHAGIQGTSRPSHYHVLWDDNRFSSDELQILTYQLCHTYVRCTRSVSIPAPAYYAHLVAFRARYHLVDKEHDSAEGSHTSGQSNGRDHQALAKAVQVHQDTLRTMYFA
UniProt Q8NDV7: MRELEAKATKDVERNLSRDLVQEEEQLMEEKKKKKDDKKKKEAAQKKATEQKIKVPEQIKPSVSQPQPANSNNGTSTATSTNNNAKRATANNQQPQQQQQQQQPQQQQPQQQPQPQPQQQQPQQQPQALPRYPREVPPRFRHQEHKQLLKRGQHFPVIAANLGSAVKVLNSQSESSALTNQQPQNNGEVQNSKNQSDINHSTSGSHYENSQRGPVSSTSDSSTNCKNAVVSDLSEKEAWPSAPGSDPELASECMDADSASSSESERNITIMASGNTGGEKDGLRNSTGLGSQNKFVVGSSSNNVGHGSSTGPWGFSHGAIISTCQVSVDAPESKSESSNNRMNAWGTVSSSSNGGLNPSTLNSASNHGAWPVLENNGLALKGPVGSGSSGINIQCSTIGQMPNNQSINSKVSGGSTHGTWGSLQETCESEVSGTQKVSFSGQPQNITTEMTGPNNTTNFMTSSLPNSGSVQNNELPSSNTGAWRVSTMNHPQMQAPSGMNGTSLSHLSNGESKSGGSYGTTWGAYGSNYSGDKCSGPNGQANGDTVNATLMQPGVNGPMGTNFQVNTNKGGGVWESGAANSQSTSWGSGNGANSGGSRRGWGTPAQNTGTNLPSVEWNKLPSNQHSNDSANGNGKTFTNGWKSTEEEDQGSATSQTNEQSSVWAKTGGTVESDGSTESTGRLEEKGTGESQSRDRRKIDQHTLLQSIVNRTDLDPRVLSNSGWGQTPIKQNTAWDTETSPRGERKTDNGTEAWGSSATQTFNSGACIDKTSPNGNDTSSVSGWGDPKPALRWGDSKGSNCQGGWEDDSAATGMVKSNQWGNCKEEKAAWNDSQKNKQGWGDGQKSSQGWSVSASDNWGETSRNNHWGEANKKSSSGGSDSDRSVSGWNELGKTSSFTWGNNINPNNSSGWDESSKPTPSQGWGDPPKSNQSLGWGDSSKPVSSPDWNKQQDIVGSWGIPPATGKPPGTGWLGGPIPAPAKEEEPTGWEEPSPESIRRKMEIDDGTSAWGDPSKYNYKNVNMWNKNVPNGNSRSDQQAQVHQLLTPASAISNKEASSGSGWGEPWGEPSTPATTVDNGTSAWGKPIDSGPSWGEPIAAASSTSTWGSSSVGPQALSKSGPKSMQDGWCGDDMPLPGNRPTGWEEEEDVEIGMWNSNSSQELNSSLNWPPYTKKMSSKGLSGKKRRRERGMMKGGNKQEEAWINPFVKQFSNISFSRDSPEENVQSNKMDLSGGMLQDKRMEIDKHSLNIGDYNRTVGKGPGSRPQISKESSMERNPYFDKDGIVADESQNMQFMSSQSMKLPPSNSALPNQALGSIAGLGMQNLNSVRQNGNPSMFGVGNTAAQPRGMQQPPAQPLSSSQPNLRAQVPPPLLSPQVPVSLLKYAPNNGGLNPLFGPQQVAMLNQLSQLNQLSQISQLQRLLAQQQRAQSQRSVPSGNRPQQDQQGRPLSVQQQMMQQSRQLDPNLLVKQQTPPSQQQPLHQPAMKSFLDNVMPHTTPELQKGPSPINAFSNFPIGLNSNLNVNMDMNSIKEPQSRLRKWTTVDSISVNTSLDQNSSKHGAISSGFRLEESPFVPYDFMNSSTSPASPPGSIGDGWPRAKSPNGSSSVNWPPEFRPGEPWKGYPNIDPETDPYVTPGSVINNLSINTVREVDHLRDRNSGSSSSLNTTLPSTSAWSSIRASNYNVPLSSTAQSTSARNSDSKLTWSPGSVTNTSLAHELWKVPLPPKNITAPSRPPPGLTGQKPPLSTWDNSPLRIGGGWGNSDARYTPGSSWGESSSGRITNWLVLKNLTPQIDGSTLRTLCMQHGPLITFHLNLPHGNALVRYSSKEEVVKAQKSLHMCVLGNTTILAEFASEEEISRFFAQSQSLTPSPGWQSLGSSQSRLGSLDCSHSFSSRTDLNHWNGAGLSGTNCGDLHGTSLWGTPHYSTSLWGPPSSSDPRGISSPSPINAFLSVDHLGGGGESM

Molecular target: Argonaute 2 (AGO2) (human (endogenous in HEK293, HEK293T, A549, SK-N-BE(2), MCF7)) (UniProt Q9UKV8)
Assay: co-IP

**Q.** For TNRC6A (from UniProt Q8NDV7 1-1962), which binding is on record?
**A.** binds
